Test results as given in patent US10028906B2, “Method and kit for treating a solid tumor and associated desmoplasia” (Rosalind Franklin Univ. of Medicine and Science, priority 2016, dated 2018).
Entries after “also recorded” stand apart in the source; their conditions may differ. Not every detail of the peptide structures is certain; ends, links or a residue may be inferred. Where no end group is shown, it is not given here.

Columns and labels:
FC1199 orthotopic tumors [1] = assay: in vivo FC1199 orthotopic tumors, ascites production; set-up: species or system mice; conditions: day 25; vs control
Text: FIGS. 21-24 show the protocol for the second invo experiment on the effectiveness of administering Peptides 1 and 2±gemcitabine. […] In FIG. 21, peptide 1 or 2 was delivered on day 11 of the study after tumor implantation and gemcitabine was delivered on day 14. […] Ascites formation is a marker of late stage pancreatic cancer and can predict mortality.

FC1199 orthotopic tumors [2] = assay: in vivo FC1199 orthotopic tumors, tumor burden as pancreas weight; set-up: species or system mice; conditions: combination
Text: FIGS. 1-24 show the in vitro and in vivo studies of CCNp37 (SEQ ID NO. 37) (Peptide 2 in the FIGS.) and CCNp38 (SEQ ID NO. 38) (Peptide 1 in the FIGS.) alone or in combination with a chemotherapeutic agent gemcitabine in treating pancreatic cells or orthotopic tumors implanted in the pancreas of mice. Gemcitibine is an example of an approved small molecule chemotherapeutic agent that is used in the clinic for pancreatic cancer, other suitable chemotherapeutic or immunotherapeutic agents are, for example, Abraxane (Paclitaxel Albumin-stabilized Nanoparticle Formulation), Afinitor (Everolimus), Erlotinib Hydrochloride, Everolimus, 5-FU (Fluorouracil Injection), Fluorouracil Injection, Gemcitabine Hydrochloride, Gemzar (Gemcitabine Hydrochloride), Irinotecan Hydrochloride Liposome, Mitomycin C, Mitozytrex (Mitomycin C), Mutamycin (Mitomycin C), Onivyde (Irinotecan Hydrochloride Liposome), Paclitaxel Albumin-stabilized Nanoparticle Formulation, Sunitinib Malate, Sutent (Sunitinib Malate), and Tarceva (Erlotinib Hydrochloride) and combinations of the same. Other suitable drug combinations for treating pancreatic cancer includes: FOLFIRINOX, GEMCITABINE-CISPLATIN, GEMCITABINE-OXALIPLATIN, and OFF. Suitable drugs for treatment for gastroenteropancreatic neuroendocrine tumors: Lanreotide Acetate, and Somatuline Depot (Lanreotide Acetate). […]

In the case of “FSGVSSDGRSSTPH [Peptide 2, FSGVSSDGRSSTPH]”, the “number of mice with ascites / ascites formation” value (FC1199 orthotopic tumors [1]) is reported as “reducing the formation of ascites associated with a solid tumor; also recorded: effective in reducing the number of mice with ascites”, the “potentiation of the therapeutic effects of gemcitabine / chemotherapeutic agent in vivo” value (FC1199 orthotopic tumors [2]; FIGS. 21 and 22) is reported as “can potentiate the therapeutic effects of the standard chemotherapeutic agent gemcitabine” and the “potentiation of the therapeutic effects of gemcitabine / chemotherapeutic agent in vivo” value (FC1199 orthotopic tumors [2]; FIGS. 21 and 22, listed as CCNp37) is reported as “treat a solid tumor more effectively than the chemotherapeutic or immunotherapeutic agents alone”.
